PubChem BioAssay AID1224830, NIAID, 2016
In all, the deposit lists about 18,000 reagents; below is an unselected part. About 2,900 of all reagents (16%) were called active. 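Calls are made per well; low scores hint the gene aids the LPS response, high scores that it dampens it.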 Repeated entries: four replicate wells of each siRNA pool.

- Aim: 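Regulators of TLR4 signalling towards TNF-alpha in macrophage-like cells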 (primary screen)
- Cell system: human THP-1 monocytic leukaemia cells, TNF dual-luciferase reporter clone, PMA-differentiated to macrophage-like cells
- Knock-down reagent: siRNA pool against human genes, 50 nM
- Timing: LPS for 4 h, given about 3 days after siRNA transfection
- Treatment: bacterial LPS (TLR4 ligand), 10 ng/ml
- Detection: 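Ratio of firefly to renilla light, scaled to the plate median and expressed as a robust z-score per replicate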
- Scale: TNF reporter robust z-score: higher = stronger TNF reporter response to LPS
- Hit rule: 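a well is active when its z-score exceeds 2.8 or falls below -1.5; control wells carry no call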

| Gene | PubChem SID | TNF reporter robust z-score | activity call |
| --- | --- | --- | --- |
| PKD1L1-AS1 | SID315459645 | -1.41 | inactive |
| PKD1L1-AS1 | SID315459645 | -1.22 | inactive |
| PKD1L1-AS1 | SID315459645 | -1.52 | active |
| PKD1L1-AS1 | SID315459645 | -1.3 | inactive |
| SUGT1P4-STRA6LP-CCDC180 | SID315458526 | -0.37 | inactive |
| SUGT1P4-STRA6LP-CCDC180 | SID315458526 | -0.01 | inactive |
| SUGT1P4-STRA6LP-CCDC180 | SID315458526 | 0.04 | inactive |
| SUGT1P4-STRA6LP-CCDC180 | SID315458526 | 2.54 | inactive |
| PGAP6 | SID315458664 | 0.01 | inactive |
| PGAP6 | SID315458664 | -0.39 | inactive |
| PGAP6 | SID315458664 | -0.49 | inactive |
| PGAP6 | SID315458664 | 0.48 | inactive |
| GPRIN2 | SID315453508 | -0.97 | inactive |
| GPRIN2 | SID315453508 | -0.74 | inactive |
| GPRIN2 | SID315453508 | -1.26 | inactive |
| SUGP1 | SID315458587 | 0.27 | inactive |
| SUGP1 | SID315458587 | -0.36 | inactive |
| SUGP1 | SID315458587 | -1.34 | inactive |
| SUGP1 | SID315458587 | 0.16 | inactive |
| PPP2R3A | SID315450756 | -1.76 | active |
| PPP2R3A | SID315450756 | -0.25 | inactive |
| PPP2R3A | SID315450756 | 1.09 | inactive |
| PPP2R3A | SID315450756 | 0.69 | inactive |
| ITGA10 | SID315452617 | 2.25 | inactive |
| ITGA10 | SID315452617 | 2.19 | inactive |
| ITGA10 | SID315452617 | -0.01 | inactive |
| ITGA10 | SID315452617 | 0.61 | inactive |
| TRERF1 | SID315457875 | -1.14 | inactive |
| TRERF1 | SID315457875 | -1.1 | inactive |
| TRERF1 | SID315457875 | -2.02 | active |
| TRERF1 | SID315457875 | -0.54 | inactive |
| REXO1 | SID315458387 | 0.8 | inactive |
| REXO1 | SID315458387 | 0.97 | inactive |
| REXO1 | SID315458387 | 0.05 | inactive |
| REXO1 | SID315458387 | 0.64 | inactive |
| ENOPH1 | SID315458624 | 0.92 | inactive |
| ENOPH1 | SID315458624 | 1.26 | inactive |
| ENOPH1 | SID315458624 | -0.45 | inactive |
| ENOPH1 | SID315458624 | 0.3 | inactive |
| AQP10 | SID315460753 | 0.05 | inactive |
| AQP10 | SID315460753 | 0.78 | inactive |
| AQP10 | SID315460753 | 0.45 | inactive |
| AQP10 | SID315460753 | 0.85 | inactive |
| C1orf226 | SID315464756 | 2.78 | inactive |
| C1orf226 | SID315464756 | 3.96 | active |
| C1orf226 | SID315464756 | 2.46 | inactive |
| C1orf226 | SID315464756 | 3.07 | active |
| ACTG2 | SID315447165 | 0.73 | inactive |
| ACTG2 | SID315447165 | 1.54 | inactive |
| ACTG2 | SID315447165 | 0.55 | inactive |
| ACTG2 | SID315447165 | -0.44 | inactive |
| SLC38A4 | SID315457397 | 0 | inactive |
| SLC38A4 | SID315457397 | 1.4 | inactive |
| SLC38A4 | SID315457397 | 0.97 | inactive |
| SLC38A4 | SID315457397 | 1.24 | inactive |
| FARSB | SID315453783 | 2.06 | inactive |
| FARSB | SID315453783 | 1.78 | inactive |
| FARSB | SID315453783 | 1.3 | inactive |
| FARSB | SID315453783 | 3.11 | active |
| NIBAN3 | SID315463007 | 1.41 | inactive |
| NIBAN3 | SID315463007 | 2.04 | inactive |
| NIBAN3 | SID315463007 | 0.67 | inactive |
| NIBAN3 | SID315463007 | 1.75 | inactive |
| DCAF12L2 | SID315464095 | -0.74 | inactive |
| DCAF12L2 | SID315464095 | -0.21 | inactive |
| DCAF12L2 | SID315464095 | -0.1 | inactive |
| DCAF12L2 | SID315464095 | -1.31 | inactive |
| TARDBP | SID315455243 | 0.92 | inactive |
| TARDBP | SID315455243 | 1.68 | inactive |
| TARDBP | SID315455243 | 1.34 | inactive |
| TARDBP | SID315455243 | 1.43 | inactive |
| ARL6IP5 | SID315454180 | -0.55 | inactive |
| ARL6IP5 | SID315454180 | 0.08 | inactive |
| ARL6IP5 | SID315454180 | -0.91 | inactive |
| ARL6IP5 | SID315454180 | -0.12 | inactive |
| ZNF826P | SID315465169 | 0.66 | inactive |
| ZNF826P | SID315465169 | -0.41 | inactive |
| ZNF826P | SID315465169 | -0.34 | inactive |
| ZNF826P | SID315465169 | 1.05 | inactive |
| CORO2A | SID315452136 | 1.73 | inactive |
| CORO2A | SID315452136 | 2.39 | inactive |
| CORO2A | SID315452136 | -0.75 | inactive |
| CORO2A | SID315452136 | 2.91 | active |
| FASTKD1 | SID315459375 | 1.52 | inactive |
| FASTKD1 | SID315459375 | 1.39 | inactive |
| FASTKD1 | SID315459375 | 1.82 | inactive |
| FASTKD1 | SID315459375 | 0.23 | inactive |
| OTC | SID315450380 | -1.1 | inactive |
| OTC | SID315450380 | -0.58 | inactive |
| OTC | SID315450380 | -0.9 | inactive |
| OTC | SID315450380 | -0.42 | inactive |
| FASN | SID315448637 | -0.5 | inactive |
| FASN | SID315448637 | -0.1 | inactive |
| FASN | SID315448637 | 0.12 | inactive |
| FASN | SID315448637 | -0.23 | inactive |
| MTMR4 | SID315453049 | -0.55 | inactive |
| MTMR4 | SID315453049 | -1.08 | inactive |
| MTMR4 | SID315453049 | -0.6 | inactive |
| AGR2 | SID315454181 | -1.33 | inactive |
| AGR2 | SID315454181 | -1.48 | inactive |
| AGR2 | SID315454181 | -1.43 | inactive |
| AGR2 | SID315454181 | -0.46 | inactive |
| BSG | SID315447589 | -0.71 | inactive |
| BSG | SID315447589 | 0.21 | inactive |
| BSG | SID315447589 | -0.33 | inactive |
| BSG | SID315447589 | 0.53 | inactive |
| SH3GLB1 | SID315456469 | -1.48 | inactive |
| SH3GLB1 | SID315456469 | -0.64 | inactive |
| SH3GLB1 | SID315456469 | -1.05 | inactive |
| SH3GLB1 | SID315456469 | -1 | inactive |

16 neighbouring reagents already listed:
| Gene | PubChem SID | TNF reporter robust z-score | activity call |
| --- | --- | --- | --- |
| PPP2R3A | SID315450756 | -1.76 | active |
| PPP2R3A | SID315450756 | -0.25 | inactive |
| PPP2R3A | SID315450756 | 1.09 | inactive |
| PPP2R3A | SID315450756 | 0.69 | inactive |
| ITGA10 | SID315452617 | 2.25 | inactive |
| ITGA10 | SID315452617 | 2.19 | inactive |
| ITGA10 | SID315452617 | -0.01 | inactive |
| ITGA10 | SID315452617 | 0.61 | inactive |
| TRERF1 | SID315457875 | -1.14 | inactive |
| TRERF1 | SID315457875 | -1.1 | inactive |
| TRERF1 | SID315457875 | -2.02 | active |
| TRERF1 | SID315457875 | -0.54 | inactive |
| REXO1 | SID315458387 | 0.8 | inactive |
| REXO1 | SID315458387 | 0.97 | inactive |
| REXO1 | SID315458387 | 0.05 | inactive |
| REXO1 | SID315458387 | 0.64 | inactive |
